From publication PMC12670160, “A drug-repurposing screen of FDA- and EMA-approved drugs identifies two NF-κB inhibitors active against eumycetoma” (Journal of Antimicrobial Chemotherapy, 2025)
Counter-ions that a name gives are not always drawn. In all, about 5,300 compounds went through this assay and about 130 (2.5%) showed an effect of 50% or more. Some of the results follow.

System: M. mycetomatis strain mm55
Details: primary screen, metabolic activity vs growth control; 96 h, 2 µM; inhibitor

SMILES	% viability [%]
CO/N=C(\C(=O)N[C@@H]1C(=O)N2C(C(=O)O)=C(COC(C)=O)CS[C@H]12)c1csc(N)n1 [ONC0005586, cefotaxime]	73.74
O=C(NCCCN1CCOCC1)c1ccc(Cl)cc1 [ONC0002344, eprobemide]	106.6
Clc1ccc(C2(c3ccc(-c4cn[nH]c4)cc3)CCNCC2)cc1 [ONC0005013, at7867]	72.74
COc1cc(CNC(=O)CCCC/C=C/C(C)C)ccc1O [ONC0000673, capsaicin]	103
C[C@]12CC[C@@H]3c4ccc(O)cc4C[C@@H](CCCCCCCCC[S+]([O-])CCCC(F)(F)C(F)(F)F)[C@H]3[C@@H]1CC[C@@H]2O (some centres unmarked) [ONC0003081, fulvestrant]	86.05
NC(=O)N/N=C/c1ccc(Oc2ccc(F)cc2)cc1 [ONC0003109, co102862]	81.41
CNC(=O)[C@@H](NC(=O)[C@H](CC(C)C)[C@H](O)C(=O)NO)C(C)(C)C [ONC0002237, marimastat]	70.98
NC1=N[C@@]2(c3cc(NC(=O)c4ccc(F)cn4)ccc3F)COC[C@@H]2CS1 [ONC0004876, ly2886721]	84.29
O=C(CCCl)NCCc1ccccc1 [ONC0002402, fenaclon]	62.84
NC1(Cc2ccc(Cl)cc2)CCN(c2ncnc3[nH]ccc23)CC1 [ONC0005032, cct128930]	76.96
CC(=O)Nc1nnc(S(N)(=O)=O)s1 [ONC0000303, acetazolamide]	89.44
Nc1nc(OCc2cc(Br)cs2)c2[nH]cnc2n1 [ONC0004536, lomeguatrib]	50.63
CCCCOc1ccc(C(=O)Nc2ccc(F)cc2F)cc1 [ONC0005047, vu 0357121 vu 0357121 vu 0357121]	78.07
CC(=O)Nc1c(I)cc(I)c(C(=O)O)c1I [ONC0002084, acetrizoic acid]	74.91
CN1C(C(=O)Nc2ccccn2)C(=O)c2sc(Cl)cc2S1(=O)=O (centres unmarked) [ONC0004064, lornoxicam]	121
Cc1cc2cc3c(C)cc(=O)oc3c(C)c2o1 [ONC0003238, trioxsalen]	111.2
CC(C)Oc1ccc2c(=O)c(-c3ccccc3)coc2c1 [ONC0005349, ipriflavone]	70.4
CC(C)N1CCN(c2ccc(C(=O)c3c(-c4ccc(O)cc4)sc4cc(O)ccc34)cc2)CC1 [ONC0003015, y134]	103.8
Clc1ccc2nsnc2c1NC1=NCCN1 [ONC0002669, tizanidine]	52.09
CCCCOc1cc(C(=O)OCCN(CC)CC)ccc1N [ONC0003963, benoxinate hydrochloride]	99.37
O=S(=O)(O)c1ccc2[nH]c(-c3ccccc3)nc2c1 [ONC0003478, phenylbenzimidazolesulfonicacid]	71.71

SMILES	% viability [%]
Nc1c[n+](N2CCOCC2)no1 [ONC0003799, linsidomine]	49.48
CCCCN(CC)c1nc(C)nc2c1c(C)c(C)n2-c1c(C)cc(C)cc1C [ONC0000219, antalarmin]	83.54
COc1cc(N2CCN(C)CC2)ccc1Nc1ncc2c(n1)N(C)c1ccccc1C(=O)N2C [ONC0001479, erk5in1]	59.93
C/C=C(/C)C(=O)O[C@H]1C(C)=C[C@]23C(=O)[C@@H](C=C(CO)[C@@H](O)[C@]12O)[C@H]1[C@@H](C[C@H]3C)C1(C)C [ONC0002089, ingenol mebutate]	57.77
COc1cc([C@H]2Oc3cc([C@H]4Oc5cc(O)cc(O)c5C(=O)[C@@H]4O)ccc3O[C@@H]2CO)ccc1O [ONC0004280, silibinin]	61.38
CC(C)C(=O)Nc1ncc(-c2cc(C(F)F)nn2-c2c(Cl)cccc2Cl)s1 [ONC0000401, limki3]	71.78
N#C/C(=C1/SC[C@@H](c2ccc(Cl)cc2Cl)S1)n1ccnc1 [Luliconazole]	0.7126
O=C(O)[C@H](O)[C@H](O)[C@@H](O)[C@H](O)[C@H](O)CO [ONC0003272, calcium gluceptate]	92.89
CCOC(=O)C1=C(N)Oc2ccc(Br)cc2C1C(C#N)C(=O)OCC (centres unmarked) [ONC0004440, ha141]	120.8
Cc1ccc(S(=O)(=O)Nc2nc3ccccc3nc2Nc2ccc3nsnc3c2)cc1 [ONC0005006, xl147 analogue]	88.37
CC(C)c1ccccc1S(=O)(=O)c1cc(N)c2ncccc2c1[N+](=O)[O-] [ONC0000164, pd160170]	85.54
CC(C)(C)c1cc(O)c(C(C)(C)C)cc1O [ONC0000112, bhq]	80.44
CCC(C)c1ccc(NC(=O)Cn2cnc3c2c(=O)n(C)c(=O)n3C)cc1 (centres unmarked) [ONC0001725, tcs5861528]	79.67
C[C@H]1NCc2cc(-c3ccc4c(=O)c(C(=O)O)cn(C5CC5)c4c3OC(F)F)ccc21 [ONC0001069, garenoxacin mesylate hydrate]	70.54
CC[C@@H]1C(=O)N(C)c2cnc(Nc3ccc(C(=O)N[C@H]4CC[C@H](N5CCN(CC6CC6)CC5)CC4)cc3OC)nc2N1C(C)C [ONC0005061, bi6727 volasertib]	89.64
CN(C)CCc1ccc(O)cc1 [ONC0002812, hordenine]	97.89
COc1cc(SC)ccc1C(=O)N1CCC(Cc2ccccc2)CC1 [ONC0003159, jx401]	95.56
CC#C[C@]1(O)CC[C@H]2[C@@H]3CCC4=CC(=O)CCC4=C3[C@@H](c3ccc(N(C)C)cc3)C[C@@]21C [ONC0001537, mifepristone]	81.78
COc1ccc(Cl)cc1C(=O)NCCc1ccc(S(=O)(=O)NC(=O)NC2CCCCC2)cc1 [ONC0005498, glyburide]	116.7
Nc1nc(=O)n([C@@H]2CS[C@H](CO)O2)cc1F [ONC0004790, emtricitabine]	100.1

Reformatted as a markdown table: part of the list above.

| SMILES | % viability [%] |
| --- | --- |
| NC(=O)N/N=C/c1ccc(Oc2ccc(F)cc2)cc1 [ONC0003109, co102862] | 81.41 |
| CNC(=O)[C@@H](NC(=O)[C@H](CC(C)C)[C@H](O)C(=O)NO)C(C)(C)C [ONC0002237, marimastat] | 70.98 |
